Values of other authors, collected in EP0186181A2, “Uses for enprostil” (SYNTEX (U.S.A.) INC., priority 1984, dated 1986).
For at least one compound, name, drawing or mass did not settle the structure.

Tested on: intestinal glucosidase activity
Details: in vivo; cited from earlier work

C[C@H]1O[C@H](O[C@H]2[C@H](O)[C@@H](O)[C@@H](O[C@H]3[C@H](O)[C@@H](O)C(O)O[C@@H]3CO)O[C@@H]2CO)[C@H](O)[C@@H](O)[C@@H]1N[C@H]1C=C(CO)[C@@H](O)[C@H](O)[C@H]1O (some centres unmarked) [Acarbose]
postprandial GIP levels: reduces
postprandial insulin levels: reduces
postprandial serum glucose levels: reduces
time to achieve peak glucose or insulin levels following a meal: no delay
total serum cholesterol: nor is there a change
